# From patent US20030148283
# Chains of the proteins cited; added tags and fusions are not shown. Lines headed by an entry give the natural chain unless they say otherwise; changes in a name come on top.
# UniProt Q9X2H9: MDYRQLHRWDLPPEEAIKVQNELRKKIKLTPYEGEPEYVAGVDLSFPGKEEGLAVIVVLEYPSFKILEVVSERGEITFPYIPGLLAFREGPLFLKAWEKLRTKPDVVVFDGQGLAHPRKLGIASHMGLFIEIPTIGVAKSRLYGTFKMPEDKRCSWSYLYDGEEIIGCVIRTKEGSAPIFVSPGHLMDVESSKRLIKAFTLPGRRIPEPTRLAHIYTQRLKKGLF
# Numbering of substitutions follows the chain as printed. For part of these data: No signal at the amounts used counts as a negative. Tags and fusion partners may be left off the protein sequences shown. For part of these data: For at least one entry, the source does not settle the construct or the ends of the probe. For part of these data: A weaker result is weaker than the reference pair of the same experiment.
# Tests used:
# [1] = target: T1, Tma endonuclease V D43A (Thermotoga maritima) (UniProt Q9X2H9); assay: EMSA; settings: deoxyinosine in top strand [26 (deoxyinosine, top strand, written as G; A opposite in bottom strand)], purified recombinant protein, label: 5'-FAM top, 5'-TET bottom, letters built from the parent sequence and the stated change
# T1 sequence: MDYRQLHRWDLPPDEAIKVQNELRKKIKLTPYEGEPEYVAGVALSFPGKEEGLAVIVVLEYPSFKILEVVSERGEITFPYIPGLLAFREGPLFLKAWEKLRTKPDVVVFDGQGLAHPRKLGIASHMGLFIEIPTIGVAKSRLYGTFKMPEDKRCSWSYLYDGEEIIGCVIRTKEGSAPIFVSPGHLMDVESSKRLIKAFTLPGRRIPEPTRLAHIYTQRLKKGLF
# [2] = target: T2, Tma endonuclease V (wild type) (Thermotoga maritima) (UniProt Q9X2H9); assay: EMSA; settings: deoxyinosine in top strand [26 (deoxyinosine, top strand, written as G; A opposite in bottom strand)], purified recombinant protein, label: 5'-FAM top, 5'-TET bottom
# T2 sequence: T1 sequence with A43D
# [3] = target: T3, Tma endonuclease V H116A (Thermotoga maritima) (UniProt Q9X2H9); assay: EMSA; settings: deoxyinosine in top strand [26 (deoxyinosine, top strand, written as G; A opposite in bottom strand)], purified recombinant protein, label: 5'-FAM top, 5'-TET bottom, letters built from the parent sequence and the stated change
# T3 sequence: T1 sequence with A43D, H116A
# [4] = target: T4, Tma endonuclease V D105A (Thermotoga maritima) (UniProt Q9X2H9); assay: EMSA; settings: deoxyinosine in top strand [26 (deoxyinosine, top strand, written as G; A opposite in bottom strand)], purified recombinant protein, label: 5'-FAM top, 5'-TET bottom, letters built from the parent sequence and the stated change
# T4 sequence: T1 sequence with A43D, D105A
# [5] = target: T5, Tma endonuclease V H125A (Thermotoga maritima) (UniProt Q9X2H9); assay: EMSA; settings: deoxyinosine in top strand [26 (deoxyinosine, top strand, written as G; A opposite in bottom strand)], purified recombinant protein, label: 5'-FAM top, 5'-TET bottom, letters built from the parent sequence and the stated change
# T5 sequence: T1 sequence with A43D, H125A
# [6] = target: T6, Tma endonuclease V Y80A (Thermotoga maritima) (UniProt Q9X2H9); assay: EMSA; settings: deoxyinosine in top strand [26 (deoxyinosine, top strand, written as G; A opposite in bottom strand)], purified recombinant protein, label: 5'-FAM top, 5'-TET bottom, letters built from the parent sequence and the stated change
# T6 sequence: T1 sequence with A43D, Y80A
# [7] = target: T7, Tma endonuclease V R88A (Thermotoga maritima) (UniProt Q9X2H9); assay: EMSA; settings: deoxyinosine in top strand [26 (deoxyinosine, top strand, written as G; A opposite in bottom strand)], purified recombinant protein, label: 5'-FAM top, 5'-TET bottom, letters built from the parent sequence and the stated change
# T7 sequence: T1 sequence with A43D, R88A
# [8] = target: T8, Tma endonuclease V E89A (Thermotoga maritima) (UniProt Q9X2H9); assay: EMSA; settings: deoxyinosine in top strand [26 (deoxyinosine, top strand, written as G; A opposite in bottom strand)], purified recombinant protein, label: 5'-FAM top, 5'-TET bottom, letters built from the parent sequence and the stated change
# T8 sequence: T1 sequence with A43D, E89A
# [9] = target: T9, Tma endonuclease V D110A (Thermotoga maritima) (UniProt Q9X2H9); assay: EMSA; settings: deoxyinosine in top strand [26 (deoxyinosine, top strand, written as G; A opposite in bottom strand)], purified recombinant protein, label: 5'-FAM top, 5'-TET bottom, letters built from the parent sequence and the stated change
# T9 sequence: T1 sequence with A43D, D110A
# [10] = target: T10, Tma endonuclease V K139A (Thermotoga maritima) (UniProt Q9X2H9); assay: EMSA; settings: deoxyinosine in top strand [26 (deoxyinosine, top strand, written as G; A opposite in bottom strand)], purified recombinant protein, label: 5'-FAM top, 5'-TET bottom, letters built from the parent sequence and the stated change
# T10 sequence: T1 sequence with A43D, K139A
# [11] = target: T6, Tma endonuclease V Y80A (Thermotoga maritima); assay: enzyme reaction in vitro; settings: deoxyinosine in top strand [26 (deoxyinosine, top strand, written as G; A opposite in bottom strand)]; apparent first order rate, E:S 1:10, 5 mM MgCl2; purified recombinant protein; label: 5'-FAM top, 5'-TET bottom; letters built from the parent sequence and the stated change
sequence,measurement,setting,value
TACCCGAGCGTCTGCGGTGTTGCGTGAGTTGTCATAGTTTGATCCTCTAGTCTTGTTGCGGGTTCC (double strand) [I/A inosine duplex],binding result,"[1]; 2 mM EDTA, no metal",binds
same,binding result,"[1]; 5 mM CaCl2, ++ also in MgCl2, no cleavage",binds
same,binding result,"[2]; 2 mM EDTA, no metal, text: no stable complex, letters built from the parent sequence and the stated change",binds more weakly
same,binding result,"[2]; 5 mM CaCl2, 65 C, ++ also in MgCl2, letters built from the parent sequence and the stated …",binds
same,binding result,[3]; 2 mM EDTA,no binding
same,binding result,"[3]; 5 mM CaCl2, ++ in MgCl2, text: reduced affinity",binds more weakly
same,binding result,[4]; 2 mM EDTA,binds more weakly
same,binding result,"[4]; 5 mM CaCl2, ++ in MgCl2, wt cleavage",binds
same,binding result,[5]; 2 mM EDTA,no binding
same,binding result,"[5]; 5 mM CaCl2, +++ in MgCl2",binds
same,binding result,[6]; 2 mM EDTA,no binding
same,binding result,"[6]; 5 mM CaCl2, - also in MgCl2, text: reduced affinity, still cleaves (++)",no binding
same,binding result,[7]; 2 mM EDTA,no binding
same,binding result,"[7]; 5 mM CaCl2, ++ in MgCl2, cleavage ++",binds more weakly
same,binding result,[8]; 2 mM EDTA,binds
same,binding result,"[8]; 5 mM CaCl2, - in MgCl2, cleavage weak",binds
same,binding result,[9]; 2 mM EDTA,binds
same,binding result,"[9]; 5 mM CaCl2, ++ in MgCl2, no cleavage",binds
same,binding result,[10]; 2 mM EDTA,no binding
same,binding result,"[10]; 5 mM CaCl2, +++ in MgCl2",binds
same,activity on this sequence,[11],0.04 min⁻¹
